These are yes or no findings as the source states them, for the method shown.
Biological target: Im7 fusion protein of PsbU (Thermosynechococcus elongatus) (UniProt Q9F1L5)
Experiment: SPR; Biacore3000, CM5 chip coated with DNase E7; extrinsic proteins as Im7 fusion proteins overexpressed in E. coli; who was immobilised is not told in the main text; details in the supplementary material; both purified

The chains behind the UniProt entries cited, without tags or fusion partners. Where a name states a change or a piece, a line headed by the entry shows the natural chain unless it says otherwise.
UniProt Q9F1L5: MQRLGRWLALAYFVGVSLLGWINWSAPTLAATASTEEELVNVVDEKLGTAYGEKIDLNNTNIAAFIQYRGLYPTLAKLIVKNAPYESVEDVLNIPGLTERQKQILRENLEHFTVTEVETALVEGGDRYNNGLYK

B1: CyanoP (protein, UniProt Q8DH84 20-183)
chain: CSATSGLQAYVDSYDGYEFLYPRGWVQVQVEDPVDVVFHDIIETTENVSVVVNTVASTKSLEELGSPEEVGDRLLRNIIAPSESGRSSALIAATSQKADDKTYYILEYAVTLPGDGNTAQQRHNLSSIAVSRGKVYTLSVSAPEERWPKVEDQFKTIVSSFTVY
  binding: no binding (tested: up to 100 μM)

Reference: publication PMC4220643
